Data on 2 molecules can be found in publication doi:10.1101/2023.04.01.535202, “Three small partner proteins facilitate the type VII-dependent secretion export of an antibacterial nuclease” (bioRxiv, 2023).

Protein sequences, listed by entry. Tags and fused reporters are not part of them. Residues count along the entry.
UniProt Q2G179, residues 1-477: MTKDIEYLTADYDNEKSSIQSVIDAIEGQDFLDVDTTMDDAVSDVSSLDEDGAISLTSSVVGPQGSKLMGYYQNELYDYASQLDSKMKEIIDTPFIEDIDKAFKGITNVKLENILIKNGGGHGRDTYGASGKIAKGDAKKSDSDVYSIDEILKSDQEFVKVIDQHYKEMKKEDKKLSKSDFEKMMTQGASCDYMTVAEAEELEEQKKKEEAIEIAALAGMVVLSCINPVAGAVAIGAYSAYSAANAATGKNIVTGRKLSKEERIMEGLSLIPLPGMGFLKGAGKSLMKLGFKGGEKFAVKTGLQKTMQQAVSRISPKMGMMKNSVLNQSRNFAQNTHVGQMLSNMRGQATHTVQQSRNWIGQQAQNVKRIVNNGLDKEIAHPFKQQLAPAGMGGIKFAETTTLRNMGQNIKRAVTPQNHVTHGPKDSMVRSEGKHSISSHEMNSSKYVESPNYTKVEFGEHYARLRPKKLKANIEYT

No constants are given. Whether binding was seen depends on the method and setting. Binding seen in cells or lysates may run through a third protein. Some entries that bind do so weakly or less than the wild type.

This test concerns the target EsaD_(1-477)-his (Staphylococcus aureus) (UniProt Q2G179). The test is described as follows: pull-down + SEC.

B1: EsaE (protein, UniProt Q2G181 1-224)
chain: MKDVKRIDYFSYEELTILGGSKLPLVNFELFDPSNFEEAKAALIEKELVTENDKLTDAGFKVATLVREYISAIVNIRINDMYFAPFSYEKDEYILLSRFKNNGFQIRIINKDIAWWSIVQSYPLLMRQEKSNDWDFKQIDDETLENLNNESIDTIGRVLEIEIYNHQGDPQQSLYNIYEQNDLLFIRYPLKDKVLNVHIGVINTFIRELFGFDTDENHINKAEE
B1: the binding result is listed as “binds”.

B2: EsxB (protein, UniProt Q2G182 1-104)
chain: MGGYKGIKADGGKVDQAKQLAAKTAKDIEACQKQTQQLAEYIEGSDWEGQFANKVKDVLLIMAKFQEELVQPMADHQKAIDNLSQNLAKYDTLSIKQGLDRVNP
As to B2, the binding entry is “binds”.
